Measurements from patent US20130243802A1.
These are yes or no findings as the source states them, for the method shown. A result given as binding can be weak or reduced; the word gives no strength. Sequences can lack the tags named with a protein.

Assays:
[1] = target: recombinant Arthrobacter davidanieli HSP70 (Arthrobacter davidanieli); experiment: CHIEF gel
[2] = target: recombinant Arthrobacter davidanieli HSP70 (Arthrobacter davidanieli); experiment: CHIEF gel, 80 µg of peptide against 10 to 1.25 µg of adHSP70
[3] = target: recombinant human HSP70 (human); experiment: CHIEF gel, 1 µg of recombinant HSP70 against 15 µg of peptide
[4] = target: recombinant rat HSP70 (rat); experiment: as above

Measured: binding

PSQGKGRGLSLSRFSWGAPSQASSGQARMFPNAPYL [MBP100-117_WT1 117-134]
binds: [1] | [2] | [3] | [4]
